# Out of some 580,000 compounds screened, about 6,100 (1.1%) were called active. The shares of active, inactive and inconclusive entries below differ from those in the screen. Calls come from the whole dose curve; as a rule, active = well fitted inhibition curve with a large enough effect; inconclusive = small, poorly fitted or top-dose-only effect, or another doubt; inactive = no such curve, though single readings can be large or run the other way. Where the call is inconclusive, the potency comes from a doubtful curve fit.
# Amino acid sequences for entries named in this document (tags omitted). A change or cut given only in a name is not applied to a line headed by its entry.
# UniProt P18054: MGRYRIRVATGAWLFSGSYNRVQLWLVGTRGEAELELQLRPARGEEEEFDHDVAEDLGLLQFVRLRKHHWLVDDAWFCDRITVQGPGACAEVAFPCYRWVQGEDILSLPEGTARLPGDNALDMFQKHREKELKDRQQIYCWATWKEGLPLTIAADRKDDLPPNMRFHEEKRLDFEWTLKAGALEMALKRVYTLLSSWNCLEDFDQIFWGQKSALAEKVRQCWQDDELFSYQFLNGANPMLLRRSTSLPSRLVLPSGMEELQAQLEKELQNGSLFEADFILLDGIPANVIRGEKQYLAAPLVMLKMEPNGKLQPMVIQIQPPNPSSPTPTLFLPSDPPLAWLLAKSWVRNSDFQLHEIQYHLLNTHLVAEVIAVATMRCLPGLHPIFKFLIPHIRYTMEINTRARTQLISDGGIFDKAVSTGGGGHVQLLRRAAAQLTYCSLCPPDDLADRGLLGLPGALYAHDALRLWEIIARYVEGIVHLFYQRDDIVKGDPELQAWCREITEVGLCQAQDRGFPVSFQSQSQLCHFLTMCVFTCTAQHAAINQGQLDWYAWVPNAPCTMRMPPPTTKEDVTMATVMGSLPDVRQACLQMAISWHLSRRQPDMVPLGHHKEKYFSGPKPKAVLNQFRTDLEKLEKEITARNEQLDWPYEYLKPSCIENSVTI
# Target: Polyunsaturated fatty acid lipoxygenase ALOX12 (Homo sapiens) (UniProt P18054)
# Assay: Primary qHTS assay for inhibitors of human arachidonate 12S-lipoxygenase (ALOX12): Round 2
# Settings: purified 12hLO, xylenol orange hydroperoxide absorbance; series mostly up to 108 µM
# How it was run: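 Hydroperoxide product was detected by ferrous iron/xylenol orange as the 573 to 405 nm absorbance ratio. Arachidonic acid at 40 uM (final) was turned over for 30 min at room temperature by 150 nM human 12hLO, pH 7.0 Hepes buffer, after 15 min compound preincubation.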
# Potency is the fitted concentration of half-maximal effect.
row,Structure (SMILES),Potency
1,CNC(=S)N/N=C(\C)c1ccc(N2CCOCC2)cc1,inactive
2,COc1ccc(-c2nc(-c3ccccc3)nc3c2CN(C(=O)C2CC2)CC3)cc1,inactive
3,N#C/C(=C\c1cccs1)C(=O)NCc1ccccc1,inactive
4,Cc1cc(C)cc(NC(=S)N2CCN(c3ncccn3)CC2)c1,inactive
5,Cc1ccc(C)c(OCC(=O)N2CCc3ccccc3C2)c1,"inconclusive: 11.2 µM [inhibitor, full curve, poor fit]"
6,Nc1c(C(=O)O)cccc1[N+](=O)[O-],"inconclusive: 44.7 µM [inhibitor, partial curve, poor fit]"
7,Cc1nnc(SC(C)C(=O)Nc2nccs2)s1 (stereo not given),"inconclusive: 50.1 µM [inhibitor, partial curve, poor fit]"
8,CCOC(=O)[C@]12CCC=C1N(Cc1ccccc1)C(=O)[C@H](CC(=O)NCc1ccc(C)o1)C2,"inconclusive: 20 µM [inhibitor, partial curve, poor fit]"
9,CC1(C)C(=O)Nc2ccccc2N1C(=O)CSc1nc(-c2ccccc2)cs1,"inconclusive: 141 µM [inhibitor, single point]"
10,O=C1CC(c2ccco2)CC2=C1C(c1ccccc1)n1nc(C(F)(F)F)nc1N2 (stereo not given),"inconclusive: 79.4 µM [inhibitor, partial curve, poor fit]"
11,Cc1nn(Cc2ccccc2Cl)c(C)c1NC(=O)c1nc2ncccn2n1,"inconclusive: 22.4 µM [inhibitor, partial curve, poor fit]"
12,COc1cc(OC)c(-n2nnc(-c3nc(-c4ccc(C)cc4)no3)c2C)cc1Cl,inactive
13,O=C(NN1C(=O)C2C3C=CC(C3)C2C1=O)c1cccc(Cl)c1 (stereo not given),inactive
14,O=C(COc1ccccc1F)Nc1nn2cc(-c3ccccc3)nc2s1,inactive
15,Cc1ccc(NC(=O)COc2ccc(/C=C3/SC(=Nc4ccccc4)N(Cc4cccnc4)C3=O)cc2)cc1,inactive
16,Oc1cccc(-c2c3nc(c(-c4cccc(O)c4)c4ccc([nH]4)c(-c4cccc(O)c4)c4nc(c(-c5cccc(O)c5)c5ccc2[nH]5)CC4)C=C3)c1,active: 3.61 µM
17,S=C(NCc1ccco1)Nc1ccccn1,"inconclusive: 79.4 µM [inhibitor, partial curve, poor fit]"
18,COc1ccc(OCc2nc(C)c(CCO)c(=O)n2CC(=O)Nc2cccc(C)c2C)cc1,inactive
19,COCCSc1ccccc1C(=O)Nc1ccccc1C(C)C,"inconclusive: 50.1 µM [inhibitor, partial curve, poor fit]"
20,OC(c1ccc(Cl)cc1)c1nnc(Nc2ccc(F)c(Cl)c2)s1 (stereo not given),"inconclusive: 70.8 µM [inhibitor, partial curve, poor fit]"

# 6 of these compounds, reformatted:
row | Structure (SMILES) | Potency
1 | CNC(=S)N/N=C(\C)c1ccc(N2CCOCC2)cc1 | inactive
2 | COc1ccc(-c2nc(-c3ccccc3)nc3c2CN(C(=O)C2CC2)CC3)cc1 | inactive
3 | N#C/C(=C\c1cccs1)C(=O)NCc1ccccc1 | inactive
4 | Cc1cc(C)cc(NC(=S)N2CCN(c3ncccn3)CC2)c1 | inactive
5 | Cc1ccc(C)c(OCC(=O)N2CCc3ccccc3C2)c1 | inconclusive: 11.2 µM [inhibitor, full curve, poor fit]
6 | Nc1c(C(=O)O)cccc1[N+](=O)[O-] | inconclusive: 44.7 µM [inhibitor, partial curve, poor fit]

# Reference: PubChem BioAssay AID1671190 (National Center for Advancing Translational Sciences (NCATS), 2021)
